Usually AC50 stands for the concentration giving half of the maximal activity seen. A lower AC50 goes with activity at low concentration.

A short description of this assay: qHTS Assay for Lipid Storage Modulators in Drosophila S3 Cells.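 On cell number change: cells counted by Cell Tracker Red CMTPX staining in the red channel.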 As to conditions: BODIPY lipid droplet fluorescence, 18-24 h; for cell number change: measured here: cell count max response, cells fed with added oleic acid. The method, boiled down: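 Drosophila S3 cells loaded with oleic acid (400 uM, as added) and compounds at several concentrations; lipid droplets imaged by 488-nm laser-scanning cytometry, 500–530 nm intensity and object ratio to cell channel. Percent activity normalized to 20 uM Triacsin C.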
Background: qHTS replaces the single test concentration by a dilution series.

The mark [1] stands for this setting: measured here: lipid fluorescence (Fed channel) AC50, cells fed with added oleic acid.
[2] abbreviates: measured here: cell number channel AC50, cells fed with added oleic acid.

Some of the results follow. Shown are side measurements of this screen, not its main read-out; they come without a call. Most of these compounds were active or inconclusive in the main read-out, so they are no random draw. Words in brackets tell the shape of the fitted curve; partial curves, single points and poor fits give uncertain potencies.

For the compound `COc1ccccc1NS(=O)(=O)c1ccc(C)c(NC(=O)c2c(C)noc2C)c1`, the cell number change is -6.74%. Further, the AC50 under setting [1] was 0.00461 µM [rising, full curve, poor fit].

As for `CC1CC1C(=O)OCC(=O)NCc1ccc(Cl)cc1Cl` (centres undefined), the concentration at half-maximal activity (AC50) under setting [2] is 6.51 µM [falling, single point] and the AC50 under setting [1] is 3.66 µM [falling, full curve].

With `COC(=O)C1(CCSC)NC(c2ccccc2F)C2C(=O)N(c3ccc4c(c3)OCCO4)C(=O)C21` (centres undefined), the AC50 under setting [1] is 8.2 µM [rising, partial curve].

For the compound `COc1cccc(CNC(=O)CCC2CCCN(C(=O)c3csc(C(C)C)n3)C2)c1` (centres undefined), the cell number change was -28.9%. In addition, the AC50 under setting [1] was 11.6 µM [falling, partial curve].

`c1ccc(CN2CCN(C(c3ccccc3)c3ccccc3)CC2)cc1`: the cell number change came to 15.8%.

In the case of `CCOCCCNC(=O)C(NC(=O)c1ccc(=O)[nH]c1)c1ccc(Cl)cc1` (centres undefined), the AC50 under setting [1] is 0.731 µM [rising, full curve, poor fit].

Take `O=C(CSc1cccc2cccc(Cl)c12)OCC(=O)N1CCN(C(=O)c2ccco2)CC1`: the cell number change came out at 1.63%. Further, the AC50 under setting [1] was 0.461 µM [rising, single point].

Consider `Cc1c(C(=O)N2CC(C)OC(C)C2)sc2nc(-c3ccc(F)cc3)cn12` (centres undefined), for which the cell number change came out at 2.3%.

On to `O=C(CSc1ccccc1)NCc1ccccc1`, for which the cell number change was 6.2%. The AC50 under setting [1] is 29.1 µM [rising, single point].

Regarding `O=C(CSc1nc2ccccc2c(=O)n1CCCO)Nc1ccc2c(c1)OCCO2`, the AC50 under setting [2] was 5.17 µM [rising, partial curve].

Consider `COc1ccc(OC)c(C(O)c2nc3ccccc3n2C(C)C)c1` (centres undefined), for which the cell number change is -0.202%. Moreover, under setting [1], the AC50 was 1.3 µM [falling, full curve, poor fit].

In the case of `CCOC(=O)c1cc(OC(=O)c2ccccc2OC)n(-c2ccccc2)n1`, the cell number change was 37.8%.

On to `COC(=O)/C(C#N)=C/c1c(Oc2cc(C)cc(C)c2)nc2c(C)cccn2c1=O`, for which the cell number change was found to be 37.4%. The AC50 under setting [2] was 6.51 µM [rising, partial curve, poor fit]. Also, the AC50 under setting [1] was 25.9 µM [rising, single point].

For the compound `O=C1c2oc3ccccc3c(=O)c2C(c2cccnc2)N1CCCN1CCOCC1` (centres undefined), the cell number change stood at 16.5%. Besides, under setting [1], the AC50 was 29.1 µM [rising, single point].

In the case of `COCCNC(=O)/C(C#N)=C1\N=C(NC(=O)c2cccs2)c2ccccc21`, the AC50 under setting [1] is 6.51 µM [rising, partial curve, poor fit].

Consider `CCn1nc(C)cc1-c1nnc(Sc2ncc([N+](=O)[O-])s2)n1C`, for which the cell number change is -64.3%. Under setting [2], the AC50 was 2.31 µM [falling, full curve]. The AC50 under setting [1] is 2.31 µM [falling, full curve].

On to `O=C(N/N=C/c1ccc(O)c2ncccc12)c1cccc(Br)c1`, for which the cell number change was -0.844%. Further, the AC50 under setting [1] is 0.0326 µM [rising, full curve, poor fit].
